The results in this text go back to patent US20240342244A1, “Isthmin Protein Therapeutics for the Treatment of Non-Alcoholic Fatty Liver Disease” (The Board of Trustees of the Leland Stanford Junior …, priority 2021, published 2024).

One series concerns NAFLD mice. Put plainly: Therapeutic administration for 14 days in mice with established NAFLD. The class given is in vivo, mouse. Conditions: daily for 14 days; between the treatment groups. The method, then: Therapeutic ISM1 recombinant protein administration in vivo. All pharmacologic studies using recombinant ISM1 protein were performed in mice with established diet-induced obesity or non-alcoholic fatty liver disease (NAFLD). For all experiments, male C57BL/6J mice purchased from Jax were fed either a high-fat diet (#D12492, Research Diets) or a NAFLD diet (#D09100310, Research Diets) prior to ISM1 protein injections. In all experiments, mice were mock injected with saline for three days prior to protein or drug injections to prevent stress-induced weight loss. Mice were I.P. injected with vehicle (saline) or indicated doses of ISM1 protein diluted in saline. For the 14-day experiments in NAFLD mice, 7-weeks old mice were fed with NAFLD diet for 3 weeks and then mock injected with saline for 3 days prior to protein injections. The induction of lipid accumulation with NAFLD diet was verified by the significant increase in hepatic lipid levels compared with mice on chow diet at the same time point. NAFLD mice were then daily I.P. injected with either vehicle (saline containing 5% DMSO and 10% Kolliphor) or indicated doses of ISM1 protein (500 μg/kg or 5 mg/kg) or with FXR agonist (30 mg/kg, GW4064, Sigma-Aldrich, #G5172) diluted in vehicle (saline containing 5% DMSO and 10% Kolliphor). […] At the end of the experiments, mice and tissue weights were recorded. […]

In another series the test system is DIO mice. Nature of the series: Therapeutic ISM1, Metformin or combined administration for 21 days in DIO mice. To be noted: daily for 21 days; 5 mg/kg ISM1, 100 mg/kg Metformin or both. In kind it is in vivo, mouse. On the procedure:
Therapeutic ISM1 recombinant protein administration in vivo. All pharmacologic studies using recombinant ISM1 protein were performed in mice with established diet-induced obesity or non-alcoholic fatty liver disease (NAFLD). For all experiments, male C57BL/6J mice purchased from Jax were fed either a high-fat diet (#D12492, Research Diets) or a NAFLD diet (#D09100310, Research Diets) prior to ISM1 protein injections. In all experiments, mice were mock injected with saline for three days prior to protein or drug injections to prevent stress-induced weight loss. Mice were I.P. injected with vehicle (saline) or indicated doses of ISM1 protein diluted in saline. For the 14-day experiments in NAFLD mice, 7-weeks old mice were fed with NAFLD diet for 3 weeks and then mock injected with saline for 3 days prior to protein injections. The induction of lipid accumulation with NAFLD diet was verified by the significant increase in hepatic lipid levels compared with mice on chow diet at the same time point. NAFLD mice were then daily I.P. injected with either vehicle (saline containing 5% DMSO and 10% Kolliphor) or indicated doses of ISM1 protein (500 μg/kg or 5 mg/kg) or with FXR agonist (30 mg/kg, GW4064, Sigma-Aldrich, #G5172) diluted in vehicle (saline containing 5% DMSO and 10% Kolliphor). For the 21-day experiments in HFD mice, mice were mock injected with saline for three days prior to protein injections. Mice were then daily I.P. injected with either vehicle (saline) or 5 mg/kg of ISM1 protein diluted in saline. Metformin (100 mg/kg, Sigma, #317240) was diluted in saline and daily administered by oral gavage. All groups received control injections by I.P. and oral gavage. At the end of the experiments, mice and tissue weights were recorded. Tissues and plasma were collected and frozen for further analyses.
Glucose tolerance and insulin tolerance tests. For glucose tolerance tests, mice were fasted overnight and I.P. injected with glucose at 2 g/kg body weight. Blood glucose levels were measured at 0, 15, 30, 45, 60, 90 and 120 mins. For insulin tolerance tests, mice were fasted for 2 h, and I.P. injected with 0.75 U/kg insulin. Blood glucose levels were measured at 0, 15, 30, 45, 60, 90 and 120 mins.

For `CC(C)c1onc(-c2c(Cl)cccc2Cl)c1COc1ccc(/C=C/c2cccc(C(=O)O)c2)c(Cl)c1` [GW4064, reference compound], in the series on NAFLD mice, the body weight result is given as “no differences”.

On to `CN(C)C(=N)N=C(N)N` [Metformin, reference compound], for which, in the series with DIO mice, the body weights entry is given as “no difference” and the food intake entry is given as “no difference”.

B1: ISM1: recombinant mouse ISM1 protein with a C-terminal myc-his tag generated in mammalian HEK 293 Expi cells (protein, UniProt A2ATD1 30-454, looked up)
Isthmin-1: SDRQDAAAGNNNLNLESDSTSETSFPLSKEAPEEHQVVHQPFPRQRFPPETGHPSLQRDGPRSFLLDLPNFPDLSKADINGQNPNIQVTIEVVDGPDSEAEKDQHPENKPSWSLPAPDWRAWWQRSLSLARTNSGDQDDKYDSTSDDSNFLSVPRGWDRPAPGHRTFETKEQPEYDSTDGEGDWSLWSVCSVTCGNGNQKRTRSCGYACIATESRTCDRPNCPGIEDTFRTAATEVSLLAGSEEFNATKLFEVDMDSCERWMSCKSEFLKKYMHKVINDLPSCPCSYPTEVAYSTADIFDRIKRKDFRWKDASGPKEKLEIYKPTARYCIRSMLSLESTTLAAQHCCYGDNMQLITRGKGAGTPNLISTEFSAELHYKVDVLPWIICKGDWSRYNEARPPNNGQKCTESPSDEDYIKQFQEAREY
modifications: C-terminal myc-His tag
notes: recombinant mouse ISM1 protein with a C-terminal myc-his tag generated in mammalian HEK 293 Expi cells
In the case of B1, in the series with DIO mice, the body weights entry is “no difference” and the food intake entry is recorded as “no difference”. Further, in the series on NAFLD mice, the body weight result is recorded as “no differences”.
